MtTrpRS: 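Enzyme assay of tryptophanyl-tRNA synthetase; the read-out is not stated. Target: Tryptophan-tRNA ligase, Mycobacterium tuberculosis (UniProt P9WFT3). Tested at 10 µM. Direction is not recorded; retested compounds ran higher, which suggests that high means inhibition. Of about 65,000 compounds tested this way, about 64 (0.098%) reached 50% or more in at least one test.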
Pks13 thioesterase: 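Polyketide synthase Pks13, Mycobacterium tuberculosis (UniProt I6X8D2). Enzyme assay of the thioesterase domain of polyketide synthase 13; the read-out is not stated. Compounds at 30 µM. The record gives no direction; the compounds picked for IC50 retests had high values, so higher reads as stronger inhibition. Of about 67,000 compounds tested this way, about 300 (0.46%) reached 50% or more in at least one test.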
LiHisRS: 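Histidine-tRNA ligase, Leishmania infantum (UniProt A4I591). Enzyme assay of histidyl-tRNA synthetase; the read-out is not stated. Concentration: 30 µM. Direction is inferred from retests: higher values go with stronger inhibition. The assay is labelled LdHisRS but filed under L. infantum. Of about 69,000 compounds tested this way, about 410 (0.6%) reached 50% or more in at least one test.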
PfKRS1: 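Lysine-tRNA ligase, Plasmodium falciparum 3D7 (UniProt Q8IDJ8). Enzyme assay of the cytosolic lysyl-tRNA synthetase in 384-well plates, read by luminescence. Compounds at 30 µM. Higher reads as stronger inhibition, judged from the few compounds that gave an IC50. Of about 69,000 compounds tested this way, about 49 (0.071%) reached 50% or more in at least one test.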

Protein sequences, listed by entry. Tags and fused reporters are not part of them. Residues count along the entry.
UniProt P9WFT3, whole entry: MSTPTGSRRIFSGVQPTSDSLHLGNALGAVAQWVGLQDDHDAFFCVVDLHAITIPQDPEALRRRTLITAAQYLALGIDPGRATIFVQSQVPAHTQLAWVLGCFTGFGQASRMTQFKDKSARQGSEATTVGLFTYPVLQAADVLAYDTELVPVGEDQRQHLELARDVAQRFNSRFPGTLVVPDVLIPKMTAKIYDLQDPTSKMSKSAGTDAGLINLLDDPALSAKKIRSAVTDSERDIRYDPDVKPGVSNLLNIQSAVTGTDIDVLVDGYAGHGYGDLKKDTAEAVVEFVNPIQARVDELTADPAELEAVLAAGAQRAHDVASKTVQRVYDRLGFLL
UniProt I6X8D2, whole entry: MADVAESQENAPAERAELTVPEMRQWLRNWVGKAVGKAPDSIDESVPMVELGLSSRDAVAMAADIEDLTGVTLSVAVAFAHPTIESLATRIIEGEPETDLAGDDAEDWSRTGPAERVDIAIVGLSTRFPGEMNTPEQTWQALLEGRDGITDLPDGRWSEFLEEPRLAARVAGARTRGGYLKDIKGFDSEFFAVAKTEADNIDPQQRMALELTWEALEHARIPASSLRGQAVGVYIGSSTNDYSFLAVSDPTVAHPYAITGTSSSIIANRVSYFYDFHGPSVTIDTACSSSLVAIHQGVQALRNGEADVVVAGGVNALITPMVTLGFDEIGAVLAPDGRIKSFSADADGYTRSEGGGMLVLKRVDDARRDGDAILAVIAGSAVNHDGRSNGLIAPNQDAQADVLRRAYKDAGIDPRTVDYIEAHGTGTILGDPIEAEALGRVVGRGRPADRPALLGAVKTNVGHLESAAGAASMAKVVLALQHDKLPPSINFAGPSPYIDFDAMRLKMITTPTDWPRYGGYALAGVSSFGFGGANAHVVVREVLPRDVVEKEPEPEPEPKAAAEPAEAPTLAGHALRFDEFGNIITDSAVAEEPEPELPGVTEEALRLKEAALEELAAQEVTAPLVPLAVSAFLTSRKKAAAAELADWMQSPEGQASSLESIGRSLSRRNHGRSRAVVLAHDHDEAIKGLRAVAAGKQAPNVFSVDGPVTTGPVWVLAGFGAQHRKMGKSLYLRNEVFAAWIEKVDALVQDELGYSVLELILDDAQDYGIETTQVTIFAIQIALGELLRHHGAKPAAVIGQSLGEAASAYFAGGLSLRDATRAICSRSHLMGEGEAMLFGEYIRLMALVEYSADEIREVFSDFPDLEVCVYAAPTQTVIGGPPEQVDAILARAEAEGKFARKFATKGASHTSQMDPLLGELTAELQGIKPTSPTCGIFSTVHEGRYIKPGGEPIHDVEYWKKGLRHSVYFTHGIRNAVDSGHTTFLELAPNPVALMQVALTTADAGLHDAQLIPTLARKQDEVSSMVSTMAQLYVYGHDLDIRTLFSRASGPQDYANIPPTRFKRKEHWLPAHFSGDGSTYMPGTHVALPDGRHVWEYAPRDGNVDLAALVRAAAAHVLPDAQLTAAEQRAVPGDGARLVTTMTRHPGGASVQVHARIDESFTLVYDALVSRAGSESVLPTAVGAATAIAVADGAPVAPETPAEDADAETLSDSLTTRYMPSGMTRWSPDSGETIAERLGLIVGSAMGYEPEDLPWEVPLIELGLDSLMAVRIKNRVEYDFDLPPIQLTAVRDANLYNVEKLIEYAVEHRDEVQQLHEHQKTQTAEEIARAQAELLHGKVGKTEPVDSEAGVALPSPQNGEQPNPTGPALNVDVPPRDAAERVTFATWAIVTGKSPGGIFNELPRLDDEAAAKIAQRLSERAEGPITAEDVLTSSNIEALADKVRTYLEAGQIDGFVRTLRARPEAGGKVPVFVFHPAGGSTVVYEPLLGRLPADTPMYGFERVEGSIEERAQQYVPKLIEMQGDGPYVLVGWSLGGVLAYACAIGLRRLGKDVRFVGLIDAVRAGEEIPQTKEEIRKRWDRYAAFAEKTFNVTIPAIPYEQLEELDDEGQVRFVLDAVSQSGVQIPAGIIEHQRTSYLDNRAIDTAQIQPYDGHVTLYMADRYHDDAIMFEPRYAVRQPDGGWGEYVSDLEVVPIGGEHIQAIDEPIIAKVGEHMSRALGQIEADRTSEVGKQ
UniProt A4I591, 1-473: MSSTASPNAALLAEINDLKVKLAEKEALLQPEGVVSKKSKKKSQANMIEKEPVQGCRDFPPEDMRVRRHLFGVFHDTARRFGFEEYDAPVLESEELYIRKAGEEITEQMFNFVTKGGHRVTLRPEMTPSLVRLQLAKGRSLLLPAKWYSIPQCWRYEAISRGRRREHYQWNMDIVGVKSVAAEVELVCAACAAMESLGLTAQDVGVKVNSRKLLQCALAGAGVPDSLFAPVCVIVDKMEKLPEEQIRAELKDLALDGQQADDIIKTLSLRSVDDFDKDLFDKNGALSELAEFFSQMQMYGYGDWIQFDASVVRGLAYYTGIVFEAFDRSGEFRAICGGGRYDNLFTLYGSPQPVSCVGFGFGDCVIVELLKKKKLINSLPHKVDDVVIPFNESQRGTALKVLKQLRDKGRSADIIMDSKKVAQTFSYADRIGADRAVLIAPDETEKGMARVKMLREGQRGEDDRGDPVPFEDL
UniProt Q8IDJ8, 1-583: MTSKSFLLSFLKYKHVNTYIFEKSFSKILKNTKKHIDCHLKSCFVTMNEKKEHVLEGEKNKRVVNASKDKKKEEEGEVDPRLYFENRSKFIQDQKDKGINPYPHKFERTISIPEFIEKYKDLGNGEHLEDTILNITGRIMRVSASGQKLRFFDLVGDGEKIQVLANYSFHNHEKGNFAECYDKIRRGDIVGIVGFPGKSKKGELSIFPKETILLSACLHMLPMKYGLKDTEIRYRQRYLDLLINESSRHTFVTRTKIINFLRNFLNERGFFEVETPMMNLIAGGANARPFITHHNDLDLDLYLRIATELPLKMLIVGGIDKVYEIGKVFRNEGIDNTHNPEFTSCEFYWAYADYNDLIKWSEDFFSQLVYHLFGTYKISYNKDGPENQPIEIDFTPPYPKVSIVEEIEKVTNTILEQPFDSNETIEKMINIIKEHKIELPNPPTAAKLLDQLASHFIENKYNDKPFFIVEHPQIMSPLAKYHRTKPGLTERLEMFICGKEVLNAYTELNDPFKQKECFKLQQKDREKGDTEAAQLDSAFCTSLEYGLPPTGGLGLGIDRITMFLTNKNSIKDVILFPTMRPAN

Values are the deposited “Percent Effect”, in %. The record does not define 0% and 100%; most values in the screen are far below 50% and negative numbers occur (in some assays of this library far below -100). Compounds were drawn at random from those tested, without regard to their results. A dash means the value is not listed here; it may have been measured.

| SMILES | MtTrpRS | Pks13 thioesterase | LiHisRS | PfKRS1 |
|---|---|---|---|---|
| `CC(C)(C)c1nc(CNC(=O)N2CCc3ccccc3C2CO)no1` (centres undefined) | -5.128 | -10.92 | 6.306 | 9.166 |
| `CCn1ccnc1CN1CCN(C(C)C(=O)N2CCCC2)CC1` (centres undefined) | -11.23 | -13.82 | 9.821 | -0.1418 |
| `CCC(CNC(=O)c1ccccn1)N1CCc2ccccc2C1` (centres undefined) | -0.4409 | -2.422 | 9.589 | 4.826 |
| `Cc1nc(NC(=O)c2c(-n3cnnn3)sc3c2CCC3)sc1C` | 2.251 | 7.067 | 4.348 | -1.698 |
| `Cc1c(Br)cccc1C(=O)NCC1CCCNC1` (centres undefined) | 2.57 | -8.134 | 19.48 | 2.725 |
| `CCOC(=O)NC(CNC(=O)c1cccnc1SC)CC(C)C` (centres undefined) | 11.87 | -16.87 | 14.75 | -0.3893 |
| `CNc1nccc(-c2cnc3sc(C)c(C)n3c2=O)n1` | - | 7.901 | 20 | 3.258 |
| `Cn1cncc1CN1CCC2(CC1)CCN2c1ncccn1` | -4.584 | -19.77 | 11.11 | 9.924 |
| `CNC(=O)[C@H]1C[C@@H]2CCN(Cc3nccs3)C[C@H]2O1` | -5.679 | -10.02 | 8.824 | -1.997 |
| `O=c1[nH]nc2nc(N3CCCC3)ccn12` | -1.025 | -26.7 | 11.86 | 7.999 |
| `CCc1ccc2c(c1)C(CCNC(=O)Cc1cccc(F)c1)C(=O)N2` (centres undefined) | -4.054 | -15.69 | 0 | 6.956 |
| `O=C(CC1CCC2(CC1)CCN(Cc1nccs1)CC2)N1CC=CC1` | -4.446 | -2.79 | 9.722 | 1.69 |
| `CCCS(=O)(=O)N1CC[C@H]2O[C@@H](c3nc(C)no3)CC[C@H]21` | 2.628 | 17.65 | 20.51 | 1.514 |
| `CCc1ncnc2c1CCN(c1ncc(F)cn1)CC2` | 1.904 | -5.366 | 16.24 | 4.029 |
| `CC(NC(=O)NCc1cccnc1N1CCCCC1)c1nccs1` (centres undefined) | 1.359 | - | 13.7 | 4.301 |
| `Cc1ccc(CN2CCC(CNC(=O)Cn3cncn3)CC2)cc1` | -1.867 | -14.82 | 8 | -1.091 |
| `COc1cccc2c1ccn2CCNC(=O)CC(C)C` | 2.871 | -13.66 | 21.05 | 4.704 |
| `Cc1ncoc1C(=O)N1C[C@@H]2COC[C@]2(c2nnc(C3CC3)o2)C1` | -0.08032 | -33.64 | 26.03 | 7.264 |
| `CN1CCN(C2CCN(CC(O)c3ccccc3F)CC2)C1=O` (centres undefined) | -12.32 | -22.72 | -1.149 | -3.453 |
| `CO[C@H]1CN(Cc2ccccc2F)C[C@@]12CCCO2` | - | -1.106 | 4.348 | 0.342 |
| `CCOC(=O)CSc1nnc([C@@H](N)C(C)CC)o1` (some centres undefined) | -1.858 | -8.114 | 12.5 | -0.6394 |
| `CC(NC1CCCC1)c1ccccc1-n1cccn1` (centres undefined) | -1.188 | -10.1 | -4.878 | -6.503 |
| `O=C(c1cc(Cl)c2c(c1)OCCO2)N1CCCC(n2cncn2)C1` (centres undefined) | 3.632 | -14.88 | 4.054 | -1.28 |
| `CO[C@H]1C[C@@H]2CN(C(=O)Cc3ccc(C)s3)C[C@@H]2C1` | -0.7812 | 15.32 | 15.83 | -1.338 |
| `Cc1cc(CN2C[C@H]3CCC[C@@]3(COCC3CCOCC3)C2)no1` | -5.567 | -40.71 | 7.018 | 2.923 |
| `CCn1c(C)nnc1SCCNC(=O)c1cnc(C(C)(C)C)nc1O` | 14.51 | -18.42 | 16.13 | -1.424 |
| `C[C@@H]1CN(C2CCOC2)C[C@]12CCN(Cc1cccnc1)C2=O` (some centres undefined) | -4.007 | -8.026 | 18 | 4.553 |
| `CCc1ccc(CN(CCN(C)C)Cc2ccc(C)s2)nc1` | -0.6518 | -40.35 | 23.08 | 2.066 |
| `CC(C)N(C)[C@@H]1CCN(Cc2nccs2)[C@H]1Cc1ccncc1` | -2.229 | 8.051 | 5.128 | 1.414 |
| `COCC(=O)N1CC(C(=O)NCC2CC2)C2(CCOCC2)C1` (centres undefined) | - | -1.987 | 11.71 | 4.212 |
| `O=C(CCC(=O)N1CCOCC1c1ccccc1)c1cccs1` (centres undefined) | 1.729 | -16.82 | 14 | 4.824 |
| `O=C(c1cccnc1)N1CCOC(CCCc2ccccc2)C1` (centres undefined) | 1.874 | -30.13 | 9.375 | -2.822 |
| `Cc1ccc(S(=O)(=O)NC(=O)c2cc(S(C)(=O)=O)ccc2C)s1` | 0.2601 | -17.52 | 24.66 | 2.167 |
| `Cc1nc(-c2ncc(C(=O)NCCNc3ncccc3C)c(O)n2)cs1` | 1.051 | -17.98 | 16.13 | 0.4132 |
| `COC(=O)C(CO)NC(=O)c1cn(Cc2ccccc2F)nn1` (centres undefined) | 5.366 | -44.75 | 15.83 | 4.572 |
| `Cc1cc(N2CCc3c(ncn3C)C2)nc(N)n1` | -0.7498 | -43.93 | 28.12 | 3.37 |
| `CN1CCCN(C(=O)c2ccnn2-c2ccc3ccccn23)CC1` | - | -25.95 | 2.727 | 0.4338 |
| `COCCN(C)C[C@@H]1CN(C(=O)NC2CCCCC2)C[C@@H]1CO` | 3.173 | -6.48 | 4.918 | 5.039 |
| `COc1ccc(C(=O)N(CCO)Cc2ccccc2)c(OC)n1` | - | -17.59 | 1.98 | 0.8153 |
| `Cn1c(=O)[nH]c(=O)n2c(CC(=O)Nc3ccc(Cl)c(Cl)c3)cnc12` | -6.482 | -5.644 | 4.138 | 1.961 |
| `O=C(NCCNc1ncccn1)C1CC(=O)N(CC(F)(F)F)C1` (centres undefined) | -3.834 | -0.2256 | 23.81 | 4.431 |
| `CCCOc1ccc(Cl)cc1CNc1ncnc2oc(C)nc12` | 10.26 | 78.93 | 24.81 | 3.679 |
| `CC(C)c1nccn1Cc1cc(C(=O)NCC(C)n2ccnc2)n[nH]1` (centres undefined) | 0.5882 | -33.24 | 23.08 | 5.701 |
| `CCc1nc(CC(=O)NC(C#N)CC(C)C)cs1` (centres undefined) | 3.116 | -10.32 | 10.92 | 6.925 |
| `Cc1ncsc1CN1Cc2cn(C)nc2C(COCC2CC2)C1` (centres undefined) | 0.9053 | -17.78 | -17.65 | -5.48 |
| `CN1CCO[C@@H]2CN(C(=O)NCc3ccccc3)CC[C@@H]2C1` | - | -41.03 | 4.545 | -1.478 |
| `c1ccc(CN2CCC(NCCSc3ncn[nH]3)C2)cc1` (centres undefined) | 0.1575 | -40.48 | 6.557 | -2.431 |
| `COCC(=O)N1CCCC2(COCCN(CCN(C)C)C2)C1` (centres undefined) | 7.868 | -28.35 | 22 | 1.68 |
| `Cc1nn(C)c2c(=O)n(Cc3ccc(C#N)cc3)nnc12` | 1.684 | -9.869 | 12.07 | 6.731 |
| `CCN(CC)C(=O)C1CCC2(CCNCC2)CO1` (centres undefined) | -3.455 | -1.938 | 35.35 | 4.522 |
| `Cc1nn(C)c2c(=O)n(Cc3ccc(Cl)cc3)nnc12` | -0.2591 | 5.706 | 12.07 | 3.764 |
| `CS(=O)(=O)N1CC2(CCN(C3CCCCC3)C2)Cc2ccccc21` (centres undefined) | 6.655 | -10.13 | 22.07 | 5.112 |
| `CN(CCC(F)(F)F)C(=O)C1CSCN1C(=O)C(C)(C)C` (centres undefined) | 4.242 | 48.83 | -4.938 | -0.09505 |
| `COc1cccc(C(C)N2CCN(S(C)(=O)=O)CC2)c1` (centres undefined) | 8.375 | 19.81 | -1.408 | -2.29 |
| `CCc1noc(C2CCCCN2C(=O)c2ccc(C)o2)n1` (centres undefined) | 2.72 | -5.551 | 13.79 | -3.088 |
| `COC[C@@]12CC[C@@H](N3CCOCC3)C[C@H]1CCN(c1ncccn1)C2` | -2.089 | -11.54 | 15.24 | 1.321 |
| `NC(=O)CCn1ccc(NC(=O)c2ccc(OCC3CC3)cc2)n1` | -2.584 | -20.62 | 16.13 | 4.588 |
| `COCCN1C[C@@H]2[C@@H](OC)CCN(C(=O)Cc3ccccc3)[C@@H]2C1` | -2.596 | 6.461 | 13.27 | 10.26 |
| `CCCC(NC(=O)c1ccccc1Br)c1nnn[nH]1` (centres undefined) | 1.231 | -17.33 | 16.96 | 3.911 |

5 of the entries, repeated:

SMILES,MtTrpRS,Pks13 thioesterase,LiHisRS,PfKRS1
CC(NC(=O)NCc1cccnc1N1CCCCC1)c1nccs1 (centres undefined),1.359,-,13.7,4.301
CCc1noc(C2CCCCN2C(=O)c2ccc(C)o2)n1 (centres undefined),2.72,-5.551,13.79,-3.088
COc1cccc2c1ccn2CCNC(=O)CC(C)C,2.871,-13.66,21.05,4.704
Cn1cncc1CN1CCC2(CC1)CCN2c1ncccn1,-4.584,-19.77,11.11,9.924
Cn1c(=O)[nH]c(=O)n2c(CC(=O)Nc3ccc(Cl)c(Cl)c3)cnc12,-6.482,-5.644,4.138,1.961

The values are deposited in ChEMBL (CHEMBL3988442, “University of Dundee, Small-Polar-MMV Screening Library” (2021)).